# Source: PMC5363067
# The chains behind the UniProt entries cited, without tags or fusion partners. Residues count along the entry.
# UniProt P20029, residues 20-655: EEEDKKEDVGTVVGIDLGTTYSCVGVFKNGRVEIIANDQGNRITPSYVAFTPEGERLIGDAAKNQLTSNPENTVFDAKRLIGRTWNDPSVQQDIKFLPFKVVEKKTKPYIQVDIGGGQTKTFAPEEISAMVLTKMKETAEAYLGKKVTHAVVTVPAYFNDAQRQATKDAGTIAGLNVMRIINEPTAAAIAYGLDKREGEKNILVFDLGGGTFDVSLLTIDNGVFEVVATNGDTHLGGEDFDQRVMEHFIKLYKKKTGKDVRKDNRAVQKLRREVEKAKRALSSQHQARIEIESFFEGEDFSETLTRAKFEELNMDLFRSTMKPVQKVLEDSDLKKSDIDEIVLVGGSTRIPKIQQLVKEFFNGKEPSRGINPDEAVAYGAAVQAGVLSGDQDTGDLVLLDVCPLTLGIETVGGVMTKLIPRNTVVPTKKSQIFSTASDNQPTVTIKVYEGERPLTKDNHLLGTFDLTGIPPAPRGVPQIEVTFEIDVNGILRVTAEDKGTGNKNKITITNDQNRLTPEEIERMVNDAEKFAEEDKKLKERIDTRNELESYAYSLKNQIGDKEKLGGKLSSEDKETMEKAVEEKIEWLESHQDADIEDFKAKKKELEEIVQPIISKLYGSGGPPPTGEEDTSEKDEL
# These are yes or no findings as the source states them, for the method shown. Binding seen in cells or lysates may run through a third protein. Some entries that bind do so weakly or less than the wild type.
# What was measured:
# [1] = biological target: cellular prion protein (PrP^C) (mouse (endogenous in wild type mouse brain)) (UniProt P04925); experiment: co-IP
# [2] = biological target: GRP78 (78-kDa glucose regulated protein) (mouse (endogenous in wild type mouse brain)) (UniProt P20029); experiment: co-IP
Substance,binding [1],binding [2]
GRP78 (78-kDa glucose regulated protein) (from UniProt P20029 20-655),binds,
cellular prion protein (PrP^C) (from UniProt P04925 23-230),,binds
